In patent US20170306005A1 (NASCIENT, published 2017):
Results are given in words; binding and its absence hold for the method and conditions named. Some results given as binding are weak or reduced against the parent protein; the word gives no strength. For some of these results: Tags and fused reporters may be left off the sequences shown.

How the values were obtained:
[1] = molecular target: T1, mouse tenascin-C rCd4-His-FBG (rat; mouse, UniProt P05540 207-392, limits assumed); assay: SPR, captured Fab, 25 C
T1 construct: domain: domains 3 and 4; C-terminal FBG fusion; biotinylated in the ELISA screen; also called Mu TNC; mouse TNC rCd4-His-FBG; not shown: 6His tag
T1 sequence (chain (part 1 of 2)): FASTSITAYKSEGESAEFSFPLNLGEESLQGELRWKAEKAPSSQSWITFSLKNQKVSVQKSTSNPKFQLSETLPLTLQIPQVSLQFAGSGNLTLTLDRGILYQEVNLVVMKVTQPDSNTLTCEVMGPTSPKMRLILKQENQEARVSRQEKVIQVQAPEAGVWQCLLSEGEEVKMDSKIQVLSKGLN
T1 sequence (chain (part 2 of 2)): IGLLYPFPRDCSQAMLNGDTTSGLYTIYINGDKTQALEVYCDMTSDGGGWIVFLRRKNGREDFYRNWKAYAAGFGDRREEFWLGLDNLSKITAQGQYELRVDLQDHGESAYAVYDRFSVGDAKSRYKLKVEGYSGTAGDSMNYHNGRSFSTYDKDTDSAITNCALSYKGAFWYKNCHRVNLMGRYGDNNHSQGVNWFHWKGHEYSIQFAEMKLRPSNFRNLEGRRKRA
Protocol: (§1) Experiments were performed using a BIAcore T100 instrument with CM5 sensor chip according to the protocol provided with the Human Fab Capture Kit (GE, 28-9583-25). […] After reference signal subtraction, the data was fitted to a global 1:1 fit using the T100 BIAevaluation software (FIGS. 6 a-d).

[2] = molecular target: T2, rat tenascin-C rCd4-His-FBG (rat, UniProt P05540 207-392, limits assumed); assay: SPR, captured Fab, 25 C
T2 construct: domain: domains 3 and 4; C-terminal FBG fusion; also called Rat TNC; rat TNC rCD4-His-FBG; not shown: 6His tag
T2 sequence (chain (part 1 of 2)): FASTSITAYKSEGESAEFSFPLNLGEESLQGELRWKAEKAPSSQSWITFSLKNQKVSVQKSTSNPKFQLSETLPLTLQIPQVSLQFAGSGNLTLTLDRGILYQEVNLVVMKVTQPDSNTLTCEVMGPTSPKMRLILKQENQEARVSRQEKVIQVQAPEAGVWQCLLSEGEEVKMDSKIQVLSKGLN
T2 sequence (chain (part 2 of 2)): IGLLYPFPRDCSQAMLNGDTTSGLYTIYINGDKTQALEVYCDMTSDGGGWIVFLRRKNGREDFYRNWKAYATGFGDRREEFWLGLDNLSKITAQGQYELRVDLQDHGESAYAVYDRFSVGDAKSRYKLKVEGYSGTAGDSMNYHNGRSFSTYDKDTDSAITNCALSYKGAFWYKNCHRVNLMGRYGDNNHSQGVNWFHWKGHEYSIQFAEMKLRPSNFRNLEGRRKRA
Protocol: as §1

[3] = molecular target: T3, dog TNC FBG-rCD4 (dog; rat) (UniProt P05540); assay: ELISA, coated FBG-rCD4, purified Fab
T3 sequence: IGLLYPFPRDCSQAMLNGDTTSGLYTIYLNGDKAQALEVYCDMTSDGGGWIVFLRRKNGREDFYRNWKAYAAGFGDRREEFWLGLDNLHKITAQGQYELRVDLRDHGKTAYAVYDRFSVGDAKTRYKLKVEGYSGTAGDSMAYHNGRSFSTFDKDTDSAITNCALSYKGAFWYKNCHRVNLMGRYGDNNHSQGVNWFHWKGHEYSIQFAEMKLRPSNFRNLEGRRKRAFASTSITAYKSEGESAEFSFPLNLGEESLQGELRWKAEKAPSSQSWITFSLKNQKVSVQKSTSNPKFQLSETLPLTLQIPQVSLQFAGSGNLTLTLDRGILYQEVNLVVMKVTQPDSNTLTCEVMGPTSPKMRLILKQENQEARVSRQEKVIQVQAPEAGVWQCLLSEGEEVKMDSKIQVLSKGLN

[4] = molecular target: T4, human TNR FBG-rCd4 (human; rat) (UniProt P05540); assay: ELISA, coated FBG-rCD4, purified Fab
T4 sequence: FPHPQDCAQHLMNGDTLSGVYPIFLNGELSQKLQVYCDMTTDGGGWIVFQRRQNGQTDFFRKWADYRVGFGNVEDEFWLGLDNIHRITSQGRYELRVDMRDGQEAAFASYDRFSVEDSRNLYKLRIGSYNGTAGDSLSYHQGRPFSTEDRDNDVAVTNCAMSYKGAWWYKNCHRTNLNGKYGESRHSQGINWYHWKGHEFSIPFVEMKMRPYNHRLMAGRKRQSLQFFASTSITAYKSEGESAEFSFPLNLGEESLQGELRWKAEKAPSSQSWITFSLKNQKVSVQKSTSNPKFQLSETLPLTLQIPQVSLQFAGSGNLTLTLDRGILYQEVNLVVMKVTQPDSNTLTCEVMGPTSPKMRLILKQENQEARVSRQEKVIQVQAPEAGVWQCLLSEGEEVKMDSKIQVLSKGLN

[5] = molecular target: T5, mouse TNC FBG-rCD4 (mouse; rat) (UniProt P05540); assay: ELISA, coated FBG-rCD4, purified Fab
T5 sequence: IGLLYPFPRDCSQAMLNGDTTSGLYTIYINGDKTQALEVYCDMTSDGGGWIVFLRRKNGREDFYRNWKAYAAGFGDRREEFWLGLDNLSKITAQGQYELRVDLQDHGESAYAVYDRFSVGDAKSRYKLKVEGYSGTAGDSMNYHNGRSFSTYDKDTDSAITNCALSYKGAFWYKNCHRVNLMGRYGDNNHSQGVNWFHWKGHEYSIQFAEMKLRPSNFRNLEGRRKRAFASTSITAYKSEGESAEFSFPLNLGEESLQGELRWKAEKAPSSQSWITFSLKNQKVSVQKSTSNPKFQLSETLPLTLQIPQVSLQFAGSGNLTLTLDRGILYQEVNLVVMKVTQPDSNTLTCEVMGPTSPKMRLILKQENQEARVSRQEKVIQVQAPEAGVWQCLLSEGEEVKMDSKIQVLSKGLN

rat TNC FBG-rCD4 (rat) [6] = molecular target: T6, rat TNC FBG-rCD4 (rat) (UniProt P05540); assay: ELISA, coated FBG-rCD4, purified Fab
T6 sequence: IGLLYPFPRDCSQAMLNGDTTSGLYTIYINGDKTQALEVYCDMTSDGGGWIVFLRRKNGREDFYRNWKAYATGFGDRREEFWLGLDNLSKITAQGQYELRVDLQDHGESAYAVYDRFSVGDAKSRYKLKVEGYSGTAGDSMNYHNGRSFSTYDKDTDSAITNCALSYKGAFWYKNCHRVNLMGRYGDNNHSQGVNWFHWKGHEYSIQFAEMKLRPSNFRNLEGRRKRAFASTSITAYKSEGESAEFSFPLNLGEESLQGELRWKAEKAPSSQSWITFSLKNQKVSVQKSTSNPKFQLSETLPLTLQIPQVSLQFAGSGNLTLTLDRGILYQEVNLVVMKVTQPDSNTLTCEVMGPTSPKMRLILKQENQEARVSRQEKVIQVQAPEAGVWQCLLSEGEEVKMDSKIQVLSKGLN

[7] = molecular target: T3, dog TNC FBG-rCD4 (dog; rat); assay: ELISA (DELFIA), antigen coated on the well, purified Fab at 50 nM, detected with anti-kappa or anti-lambda mAb and Europium-conjugated anti-mouse mAb
[8] = molecular target: T4, human TNR FBG-rCd4 (human; rat); assay: as above
[9] = molecular target: T5, mouse TNC FBG-rCD4 (mouse; rat); assay: as above
rat TNC FBG-rCD4 (rat) [10] = molecular target: T6, rat TNC FBG-rCD4 (rat); assay: as above
[11] = molecular target: T7, human tenascin-C rCd4-His-FBG (rat; human, UniProt P05540 207-392, limits assumed); assay: SPR, captured purified IgG4, 37 C
T7 construct: domain: domains 3 and 4; C-terminal FBG fusion; biotinylated in the ELISA and HTRF screens; also called Hu TNC; human TNC rCd4-His-FBG; not shown: 6His tag
T7 sequence (chain (part 1 of 2)): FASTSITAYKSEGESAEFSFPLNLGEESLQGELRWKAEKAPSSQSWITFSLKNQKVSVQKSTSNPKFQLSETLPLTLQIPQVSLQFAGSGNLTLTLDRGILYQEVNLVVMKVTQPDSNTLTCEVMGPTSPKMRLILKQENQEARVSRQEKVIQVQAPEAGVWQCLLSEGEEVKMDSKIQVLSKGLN
T7 sequence (chain (part 2 of 2)): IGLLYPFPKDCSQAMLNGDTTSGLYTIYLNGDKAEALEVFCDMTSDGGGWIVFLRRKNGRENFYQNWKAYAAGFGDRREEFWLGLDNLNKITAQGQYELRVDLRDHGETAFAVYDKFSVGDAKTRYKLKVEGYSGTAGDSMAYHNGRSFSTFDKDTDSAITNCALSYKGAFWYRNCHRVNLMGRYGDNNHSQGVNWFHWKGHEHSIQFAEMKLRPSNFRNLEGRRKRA
Protocol: (§2) Detailed kinetic parameters were evaluated for the 9 prioritised IgG4 antibodies. Binding characteristics were determined for interaction with human, rat and dog TNC rCD4-His-FBG, and human TNR rCD4-His-FBG. Kinetic assays followed essentially the same protocols as for the off-rate determinations described above, with some modifications as follows. […] Purified anti-FBG IgG4 was diluted to a concentration of 3.5 nM in PBS, pH 7.4, 0.05% Tween-20 and injected into FC2 at a flow rate of 10 μl/min, 60 s contact time. […] Antigens were prepared by doubling dilution in PBS, pH 7.4, 0.05% Tween-20 (highest concentration 100 nM except mouse rCD4-His-FBG which was 7 nM). Assays were performed at 37° C. (30 μl/min, 120 s contact time; mouse rCD4-His-FBGFBG 10 μl/min, 60 s contact time), with both the flow cell and injection chamber equilibrated to this temperature. As before, kinetic parameters were determined by reference cell subtraction and fitting the sensogram experimental data assuming a 1:1 interaction using BIAevaluation software (GE, BR-1005-97).

[12] = molecular target: T1, mouse tenascin-C rCd4-His-FBG; assay: SPR, captured purified IgG4, 37 C
Protocol: as §2

[13] = molecular target: endogenous tenascin-C in human RA knee synovium (human) (UniProt P24821); assay: immunohistochemistry, RA synovium sections

Measured: binding

B1: Fab B12 (Fab, V domains shown)
VH: QVQLVESGGGLVQPGRSLRLSCAASGFTFDDYAMHWVRQAPGKGLEWVSGISGSGGSTYYADSVKGRFTISRDNAKNSLYLQMNSLRAEDTALYYCAKDISAVPDTFDIWGQGTMVTVSS
VL: DIQMTQSPASLPTPVGDRVTITCRASQYIQGFLNWYQQKPGKAPKLLIYDASNLETGVPSRFSGSGSGTDFTLTISSLQPEDFATYYCQQSYSTPQTFGQGTKVDIKR
notes: monomeric Fab
not listed: [11] | [12] | [13]
binds: all other assays above

B2: 165_13_B1 human IgG4 (antibody, V domains shown)
VH: QVQLVESGGGLVQPGRSLRLSCAASGFTFDDYAMHWVRQAPGKGLEWVSGISGSGGSTYYADSVKGRFTISRDNAKNSLYLQMNSLRAEDTALYYCAKVMSSMEDAFDIWGQGTMVTVSS
VL: DIQMTQSPASLPTPVGDRVTITCRASQYIQGFLNWYQQKPGKAPKLLIYDASNLETGVPSRFSGSGSGTDFTLTISSLQPEDFATYYCQQSYSTPQTFGQGTKVDIKR
notes: human IgG4 with hinge S241P
binds: [11] | [12]

B3: Fab F3 (Fab, V domains shown)
VH: EVQLLESGGGLVQPGGSLRLSCAASGFTFSSYGMHWVRQAPGKGLEWVAVISYDGSNKYYADSVKGRFTISRGNSKNTLYLQMNSLKAEDTAVYYCAREGYDQLFSAESNAFDIWGQGTLVTVSS
VL: NFMLAQPHSVSESPGKTVTISCTRSSGSIASYFVQWFQQRPGSAPTAVIYEDNQRPSGVPDRFSGSIDSSSNSASLTISGLKTEDEADYYCQSYDSSNWVFGGGTKVTVLG
notes: monomeric Fab
not listed: [2] | [8] | [11] | [12] | [13]
binds: all other assays above

B4: Fab D8 (Fab, V domains shown)
VH: EVQLVQSGAEVKKPGASVKVSCKASGYTFTSYGISWVRQAPGQGLEWMGWISAYNGNTNYAQKLQGRVTMTTDTSTSTAYMELRSLRSDDTAVYYCARNQDSSSDYWGQGTLVTVSS
VL: DIQMTQSPASLPTSVGDRVTITCRASQYIQGFLNWYQQKPGKAPKLLIYDASNLETGVPSRFSGSGSGTDFTLTISSLQPEDFATYYCQQSYSTLQTFGQGTKVDIKR
notes: monomeric Fab
not listed: [2] | [8] | [11] | [12] | [13]
binds: all other assays above

B5: 160_01_A4 human IgG4 (antibody, V domains shown)
VH: EVRLVQSGAEVKKPGASVKVSCKVSGYTLTELSMHWVRQAPGKGLEWMGGFDPEDGETIYAQKFQGRVTMTEDTSTDTAYMELSSLRSEDTAVYYCATAQKETLGNAIWGQGTLVTVSS
VL: DIQMTQSPASLPTSVGDRVTITCRASQYIQGFLNWYQQKPGKAPRLLIYAASTLQDGVPSRFSGSGYGTDFTLTISSLQPEDFATYYCQQSYSTPWTFGQGTKVEIKR
notes: human IgG4 with hinge S241P; also called Antibody 160 01 A4 (derived from 2A5)
binds: [11] | [12]

B6: B12 formatted as mouse IgG2a (antibody, V domains shown)
VH: QVQLVESGGGLVQPGRSLRLSCAASGFTFDDYAMHWVRQAPGKGLEWVSGISGSGGSTYYADSVKGRFTISRDNAKNSLYLQMNSLRAEDTALYYCAKDISAVPDTFDIWGQGTMVTVSS
VL: DIQMTQSPASLPTPVGDRVTITCRASQYIQGFLNWYQQKPGKAPKLLIYDASNLETGVPSRFSGSGSGTDFTLTISSLQPEDFATYYCQQSYSTPQTFGQGTKVDIKR
binds: [13]
